In patent US20230144805A1, “Methods of Noninvasive Detection and Specific Treatment for Cancer Metastasis” (Primo Biotechnology Co., Ltd, priority 2021, published 2023):

Tested on: breast cancer hepatic metastatic cells
Test: [18F]PSMA-1007 micro PET/CT imaging in 4T1-tumor mice
Format: in vivo
Conditions: 200-300 uCi (0.2 ml) tail vein

Question: Which results are given for `O=C(O)CC[C@H](NC(=O)N[C@@H](CCCCNC(=O)[C@H](Cc1ccc2ccccc2c1)NC(=O)c1ccc(CNC(=O)[C@H](CCC(=O)O)NC(=O)[C@H](CCC(=O)O)NC(=O)c2ccc([18F])nc2)cc1)C(=O)O)C(=O)O` [18F-PSMA-1007]?
Answer: uptake by breast cancer hepatic metastatic cells in micro PET/CT image: specific and could be absorbed by breast cancer hepatic metastatic cells; uptake by primary breast cancer tumors and lung/bone metastatic tumor cells in micro PET/CT image: not by the primary breast cancer tumors and lung/bone metastatic tumor cells
